# According to the supplement of paper PMC8728848:
# This is one part of the list.
# B1: CcfD (Bacteroides fragilis), Q5L9G4 (protein)
# chain: MKKQNSIYTLLIALLCFVSSCDYLGVSDQLAGGLQNTEQVFDNVSYTKRWYANVFAGIPDYSGINSVNVGAFKNPWTGMCDELVVGYGNSSKYNNSDRNAANMGFHRYGDCYKYIRQANIFLQKAHPIMTTGTQGDQLLEDELTQMKANVRFMRAFYHYLLFEQYGPIILVKDKIYNATEDQDVPRNTVDEVIEYIDSELTAVASELTQEPIFEDKDYRAWPTKGVALAVRAKLWLYAASPLLNGGYREALSVTNPDGTRLFPDYDAGKWEKALAACKDFIDYAEAGRYELYKEYKDDNGAVIDPDKSVYNLFQKYTHEIIWATANNDWGGMNGDAFDRRIAPRCEKNGLGSTGVTQELVDAFYMKDGFPVSATAYLPQSTLYQEEGYGTYKDQNDNFSKKYTNVTVSNRYLNREPRFYNTVFFNGRQWPVSCNQVLFYNGGNSGVQEGQATLTGYMLFKRFNRSVSLTNPGVASQFRPSIIFRLADFYLMYAEAANEVNPNDARVLKYLNLVRERAGLPDIETLNPAIRGNQELQRAAIQRERQIELATEGQRYFDVRRWMIADKNGEGRQNGYVHGMNVRGESNDKEDFNRIVEASQIVFNRKMYLYPMPDSEMRKTKNLVQNPGW
# What was measured:
# Test in all cases: glycan array binding signal (z-score within array); higher = stronger binding
# Details in all cases: glycan notation: IUPAC condensed, linker removed
# [1] = molecular target: Neu5Ac(a2-3)Gal(b1-4)GlcNAc(b1-3)[Neu5Ac(a2-3)Gal(b1-4)GlcNAc(b1-6)]GalNAc
# Procedure, shortened: (§1)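 The binding signal is a Z-score computed within each array. Data were drawn from 3228 arrays in the Consortium for Functional Glycomics database, restricted to those with a known protein sequence. Scores were averaged over arrays of the same protein sequence at different concentrations or buffers, and over linkers, and negative values can be taken as non-binding.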
# [2] = molecular target: Neu5Ac(a2-3)Gal(b1-4)GlcNAc(b1-6)GalNAc
# Procedure, shortened: as §1
# [3] = molecular target: Neu5Ac(a2-3)Gal(b1-4)GlcNAc(b1-6)[Gal(b1-3)]GalNAc
# Procedure, shortened: as §1
# [4] = molecular target: Neu5Ac(a2-3)Gal(b1-4)GlcNAc(b1-6)[Neu5Ac(a2-3)Gal(b1-3)]GalNAc
# Procedure, shortened: as §1
# [5] = molecular target: Neu5Ac(a2-3)Gal(b1-4)GlcNAc6S
# Procedure, shortened: as §1
# [6] = molecular target: Neu5Ac(a2-3)Gal(b1-4)[Fuc(a1-3)]GlcNAc
# Procedure, shortened: as §1
# [7] = molecular target: Neu5Ac(a2-3)Gal(b1-4)[Fuc(a1-3)]GlcNAc(b1-2)Man
# Procedure, shortened: as §1
# [8] = molecular target: Neu5Ac(a2-3)Gal(b1-4)[Fuc(a1-3)]GlcNAc(b1-3)Gal
# Procedure, shortened: as §1
# [9] = molecular target: Neu5Ac(a2-3)Gal(b1-4)[Fuc(a1-3)]GlcNAc(b1-3)Gal(b1-4)GlcNAc
# Procedure, shortened: as §1
# [10] = molecular target: Neu5Ac(a2-3)Gal(b1-4)[Fuc(a1-3)]GlcNAc(b1-3)Gal(b1-4)[Fuc(a1-3)]GlcNAc(b1-3)Gal(b1-4)[Fuc(a1-3)]GlcNAc
# Procedure, shortened: as §1
# [11] = molecular target: Neu5Ac(a2-3)Gal(b1-4)[Fuc(a1-3)]GlcNAc(b1-3)GalNAc
# Procedure, shortened: as §1
# [12] = molecular target: Neu5Ac(a2-3)Gal(b1-4)[Fuc(a1-3)]GlcNAc(b1-6)[Gal(b1-3)]GalNAc
# Procedure, shortened: as §1
# [13] = molecular target: Neu5Ac(a2-3)Gal(b1-4)[Fuc(a1-3)]GlcNAc(b1-6)[Neu5Ac(a2-3)Gal(b1-3)]GalNAc
# Procedure, shortened: as §1
# [14] = molecular target: Neu5Ac(a2-3)Gal(b1-4)[Fuc(a1-3)]GlcNAc6S
# Procedure, shortened: as §1
# [15] = molecular target: Neu5Ac(a2-3)Gal6S(b1-4)GlcNAc
# Procedure, shortened: as §1
# [16] = molecular target: Neu5Ac(a2-3)Gal6S(b1-4)[Fuc(a1-3)]GlcNAc
# Procedure, shortened: as §1
# Neu5Ac(a2-3)GalNAc = molecular target: Neu5Ac(a2-3)GalNAc
# Procedure, shortened: as §1
# [17] = molecular target: Neu5Ac(a2-3)GalNAc(b1-4)GlcNAc
# Procedure, shortened: as §1
# [18] = molecular target: Neu5Ac(a2-3)[GalNAc(b1-4)]Gal(b1-4)Glc
# Procedure, shortened: as §1
# [19] = molecular target: Neu5Ac(a2-3)[GalNAc(b1-4)]Gal(b1-4)GlcNAc
# Procedure, shortened: as §1
# [20] = molecular target: Neu5Ac(a2-3)[GalNAc(b1-4)]Gal(b1-4)GlcNAc(b1-3)GalNAc
# Procedure, shortened: as §1
# [21] = molecular target: Neu5Ac(a2-3)[Neu5Ac(a2-6)]GalNAc
# Procedure, shortened: as §1
# Neu5Ac(a2-6)Gal = molecular target: Neu5Ac(a2-6)Gal
# Procedure, shortened: as §1
# [22] = molecular target: Neu5Ac(a2-6)Gal(b1-3)GlcNAc(b1-3)[Gal(b1-4)GlcNAc(b1-6)]Gal(b1-4)Glc
# Procedure, shortened: as §1
# Neu5Ac(a2-6)Gal(b1-4)Glc = molecular target: Neu5Ac(a2-6)Gal(b1-4)Glc
# Procedure, shortened: as §1
# [23] = molecular target: Neu5Ac(a2-6)Gal(b1-4)GlcNAc
# Procedure, shortened: as §1
# [24] = molecular target: Neu5Ac(a2-6)Gal(b1-4)GlcNAc(b1-2)Man
# Procedure, shortened: as §1
# [25] = molecular target: Neu5Ac(a2-6)Gal(b1-4)GlcNAc(b1-2)Man(a1-3)Man(b1-4)GlcNAc(b1-4)GlcNAc
# Procedure, shortened: as §1
# [26] = molecular target: Neu5Ac(a2-6)Gal(b1-4)GlcNAc(b1-2)Man(a1-3)[Gal(b1-4)GlcNAc(b1-2)Man(a1-6)]Man(b1-4)GlcNAc(b1-4)GlcNAc
# Procedure, shortened: as §1
# [27] = molecular target: Neu5Ac(a2-6)Gal(b1-4)GlcNAc(b1-2)Man(a1-3)[GlcNAc(b1-4)][Neu5Ac(a2-6)Gal(b1-4)GlcNAc(b1-2)Man(a1-6)]Man(b1-4)GlcNAc(b1-4)GlcNAc
# Procedure, shortened: as §1
# [28] = molecular target: Neu5Ac(a2-6)Gal(b1-4)GlcNAc(b1-2)Man(a1-3)[Man(a1-6)]Man(b1-4)GlcNAc(b1-4)GlcNAc
# Procedure, shortened: as §1
# [29] = molecular target: Neu5Ac(a2-6)Gal(b1-4)GlcNAc(b1-2)Man(a1-3)[Neu5Ac(a2-3)Gal(b1-4)GlcNAc(b1-2)Man(a1-6)]Man(b1-4)GlcNAc(b1-4)GlcNAc
# Procedure, shortened: as §1
# [30] = molecular target: Neu5Ac(a2-6)Gal(b1-4)GlcNAc(b1-2)Man(a1-3)[Neu5Ac(a2-6)Gal(b1-4)GlcNAc(b1-2)Man(a1-6)]Man(b1-4)GlcNAc(b1-4)GlcNAc
# Procedure, shortened: as §1
# [31] = molecular target: Neu5Ac(a2-6)Gal(b1-4)GlcNAc(b1-2)Man(a1-3)[Neu5Ac(a2-6)Gal(b1-4)GlcNAc(b1-2)Man(a1-6)]Man(b1-4)GlcNAc(b1-4)[Fuc(a1-6)]GlcNAc
# Procedure, shortened: as §1
# [32] = molecular target: Neu5Ac(a2-6)Gal(b1-4)GlcNAc(b1-2)Man(a1-6)Man(b1-4)GlcNAc(b1-4)GlcNAc
# Procedure, shortened: as §1
# [33] = molecular target: Neu5Ac(a2-6)Gal(b1-4)GlcNAc(b1-2)Man(a1-6)[Gal(b1-4)GlcNAc(b1-2)Man(a1-3)]Man(b1-4)GlcNAc(b1-4)GlcNAc
# Procedure, shortened: as §1
# [34] = molecular target: Neu5Ac(a2-6)Gal(b1-4)GlcNAc(b1-2)Man(a1-6)[GlcNAc(b1-2)Man(a1-3)]Man(b1-4)GlcNAc(b1-4)GlcNAc
# Procedure, shortened: as §1
# [35] = molecular target: Neu5Ac(a2-6)Gal(b1-4)GlcNAc(b1-2)Man(a1-6)[Man(a1-3)]Man(b1-4)GlcNAc(b1-4)GlcNAc
# Procedure, shortened: as §1
# [36] = molecular target: Neu5Ac(a2-6)Gal(b1-4)GlcNAc(b1-2)[Neu5Ac(a2-6)Gal(b1-4)GlcNAc(b1-4)]Man(a1-3)[GlcNAc(b1-4)][Neu5Ac(a2-6)Gal(b1-4)GlcNAc(b1-2)[Neu5Ac(a2-6)Gal(b1-4)GlcNAc(b1-6)]Man(a1-6)]Man(b1-4)GlcNAc(b1-4)GlcNAc
# Procedure, shortened: as §1
# [37] = molecular target: Neu5Ac(a2-6)Gal(b1-4)GlcNAc(b1-2)[Neu5Ac(a2-6)Gal(b1-4)GlcNAc(b1-4)]Man(a1-3)[GlcNAc(b1-4)][Neu5Ac(a2-6)Gal(b1-4)GlcNAc(b1-4)Man(a1-6)]Man(b1-4)GlcNAc(b1-4)GlcNAc
# Procedure, shortened: as §1
# [38] = molecular target: Neu5Ac(a2-6)Gal(b1-4)GlcNAc(b1-2)[Neu5Ac(a2-6)Gal(b1-4)GlcNAc(b1-6)]Man(a1-6)[Neu5Ac(a2-6)Gal(b1-4)GlcNAc(b1-2)Man(a1-3)][GlcNAc(b1-4)]Man(b1-4)GlcNAc(b1-4)GlcNAc
# Procedure, shortened: as §1
# [39] = molecular target: Neu5Ac(a2-6)Gal(b1-4)GlcNAc(b1-3)Gal(b1-3)GlcNAc
# Procedure, shortened: as §1
# [40] = molecular target: Neu5Ac(a2-6)Gal(b1-4)GlcNAc(b1-3)Gal(b1-4)GlcNAc
# Procedure, shortened: as §1
# [41] = molecular target: Neu5Ac(a2-6)Gal(b1-4)GlcNAc(b1-3)Gal(b1-4)GlcNAc(b1-2)Man(a1-3)[Neu5Ac(a2-6)Gal(b1-4)GlcNAc(b1-3)Gal(b1-4)GlcNAc(b1-2)Man(a1-6)]GalNAc
# Procedure, shortened: as §1
# [42] = molecular target: Neu5Ac(a2-6)Gal(b1-4)GlcNAc(b1-3)Gal(b1-4)GlcNAc(b1-3)Gal(b1-4)GlcNAc
# Procedure, shortened: as §1
# [43] = molecular target: Neu5Ac(a2-6)Gal(b1-4)GlcNAc(b1-3)Gal(b1-4)GlcNAc(b1-3)Gal(b1-4)GlcNAc(b1-2)Man(a1-3)[Neu5Ac(a2-6)Gal(b1-4)GlcNAc(b1-3)Gal(b1-4)GlcNAc(b1-3)Gal(b1-4)GlcNAc(b1-2)Man(a1-6)]GalNAc
# Procedure, shortened: as §1
binder,measurement,setting,value
B1,glycan array binding signal (z-score),[1],0.443
same,glycan array binding signal (z-score),[2],0.154
same,glycan array binding signal (z-score),[3],0.312
same,glycan array binding signal (z-score),[4],0.22
same,glycan array binding signal (z-score),[5],-0.443
same,glycan array binding signal (z-score),[6],-0.522
same,glycan array binding signal (z-score),[7],-0.818
same,glycan array binding signal (z-score),[8],0.036
same,glycan array binding signal (z-score),[9],-0.161
same,glycan array binding signal (z-score),[10],-1.11
same,glycan array binding signal (z-score),[11],1.11
same,glycan array binding signal (z-score),[12],-0.614
same,glycan array binding signal (z-score),[13],0.227
same,glycan array binding signal (z-score),[14],0.489
same,glycan array binding signal (z-score),[15],-0.01
same,glycan array binding signal (z-score),[16],-1.03
same,glycan array binding signal (z-score),Neu5Ac(a2-3)GalNAc,-0.148
same,glycan array binding signal (z-score),[17],-0.739
same,glycan array binding signal (z-score),[18],2.27
same,glycan array binding signal (z-score),[19],-0.988
same,glycan array binding signal (z-score),[20],0.036
same,glycan array binding signal (z-score),[21],-0.653
same,glycan array binding signal (z-score),Neu5Ac(a2-6)Gal,0.043
same,glycan array binding signal (z-score),[22],-0.555
same,glycan array binding signal (z-score),Neu5Ac(a2-6)Gal(b1-4)Glc,-0.729
same,glycan array binding signal (z-score),[23],-0.942
same,glycan array binding signal (z-score),[24],-0.522
same,glycan array binding signal (z-score),[25],-0.016
same,glycan array binding signal (z-score),[26],-0.942
same,glycan array binding signal (z-score),[27],0.128
same,glycan array binding signal (z-score),[28],-0.003
same,glycan array binding signal (z-score),[29],-1.02
same,glycan array binding signal (z-score),[30],0.561
same,glycan array binding signal (z-score),[31],0.266
same,glycan array binding signal (z-score),[32],-0.259
same,glycan array binding signal (z-score),[33],1.4
same,glycan array binding signal (z-score),[34],4.06
same,glycan array binding signal (z-score),[35],-0.923
same,glycan array binding signal (z-score),[36],-0.299
same,glycan array binding signal (z-score),[37],-0.627
same,glycan array binding signal (z-score),[38],-0.246
same,glycan array binding signal (z-score),[39],-0.319
same,glycan array binding signal (z-score),[40],-0.988
same,glycan array binding signal (z-score),[41],-0.424
same,glycan array binding signal (z-score),[42],-1.04
same,glycan array binding signal (z-score),[43],2.39

# Some of the entries above, reformatted.
binder	measurement	setting	value
B1	glycan array binding signal (z-score)	[10]	-1.11
same	glycan array binding signal (z-score)	[11]	1.11
same	glycan array binding signal (z-score)	[12]	-0.614
same	glycan array binding signal (z-score)	[13]	0.227
